Experimental data published in patent US11707449B2, “Methods and formulations for treatment of spinobulbar muscular atrophy” (ST. JUDE CHILDREN'S RESEARCH HOSPITAL, INC., priority 2017, dated 2023).
For at least one compound, name, drawing or mass did not settle the structure.

System: flies expressing polyQ-expanded AR in the eye (GMR>UAS-AR52Q)
Test: SBMA fly eye degeneration
Type: in vivo, Drosophila
Conditions: flies reared on food containing DHT + compound
From the text: UAS-AR52Q, UAS-AR52Q-K720A, and UAS-AR66Q-E897K fly stocks were generated as previously described^8. Fly stocks were crossed to various GAL4 driver lines (ELAV-GAL4 for pan-neuronal, OK371-GAL4 for motor neuron, GMR-GAL4 for eye) to induce expression of the AR transgene in a tissue-specific manner in fly vials containing fly food with either vehicle (1% ethanol +/−0.1% DMSO) or drugs. Upon the presence of progeny, parental flies were removed, and F1 flies were scored for phenotypic analysis. Viability was determined as previously described^40. Briefly, the population frequency of adult F1 SBMA flies (ELAV>UAS-AR52Q or OK371>UAS-AR52Q) and control flies (GAL4-ELAV; CyO-GFP) were determined by the presence or absence of the CyO phenotypic marker. At least three independent biological replicates (F0 crosses) were performed with new drug/food preparations for each treatment group, and a total of at least 50 flies were scored for each treatment group. To determine locomotor activity of SBMA flies, adult F1 flies (OK371>UAS-AR52Q) reared on food containing vehicle or drug were allowed to walk for 90 seconds in one well of a 12-well tissue culture plate while video was recorded using a Leica M205C stereomicroscope and Leica DFC320 digital camera. Videos were recorded for at least 15 flies per treatment group. […]

CC(O)(CS(=O)(=O)c1ccc(F)cc1)C(=O)Nc1ccc(C#N)c(C(F)(F)F)c1 (stereo not shown) [bicalutamide, reference compound]
DHT-dependent eye degeneration: mitigated
